Patent publication US20140350273A1, “PEDIATRIC USES OF CABAZITAXEL” (AVENTIS PHARMA S.A., priority 2012, published 2014)
Like-named read-outs stand apart in the source and are kept apart here. Some of these results come from one statement about several compounds together.

Key:
Type in all cases: in vivo
[1] = system: human rhabdomyosarcoma RH-30
Procedure: (§1) This efficacy may be quantified, for example, as changes in tumor volume for each treated (T) and control (C) group, which are calculated for each animal and each day by subtracting the tumor volume on the day of first treatment (staging day) from the tumor volume on the specified observation day. This allows calculating the tumor growth inhibition: ΔT/ΔC=(median delta T/median delta C)×100. Individual tumor volume changes from baseline are thereafter analyzed by a non-parametric two-way ANOVA-TYPE (with factors: group and repeated days) followed by a post-hoc contrasts analysis, with Bonferroni-Holm adjustment for multiplicity, comparing all treated groups to the control group. […] A probability less than 5% (p<0.05) was considered as significant.
(§2) Based on the National Cancer Institute (NCl) standards, a ΔT/ΔC≦40% is the minimal level required to declare activity.
(§3) The tumor doubling time (in days; Td) was estimated from the plot of the log linear growth of the control group tumors in exponential growth (100 to 1000 mm^3 range) [T. H. Corbett et al., Cancer, 40: 2660-2680 (1977); F. M. Schabel et al., Cancer Drug Development, Part B, Methods in Cancer Research, 17: 3-51, New York, Academic Press Inc. (1979)].
(§4) This efficacy may also be quantified by the number of tumor regressions observed after therapy. Individual mice reporting a tumor volume ≦50% of the Day 0 measurement for two consecutive measurements over a seven day period were considered partial responders (PR). Individual mice lacking palpable tumors (<4×4 mm^2 for two consecutive measurements over a seven day period) were classified as complete responders (CR); a CR that persisted until study completion was considered a tumor-free survivor (TFS).
(§5) The animals subjected to the experiment are subcutaneously grafted unilaterally with approximately 30 mg of a tumor fragment on day 0. The animals are implanted with a human tumor xenografted in immunocompromized mice. Several days post tumor implantation, mice are randomized according to their body weight to the different groups of treatments and controls. The animals are observed every day. […] The groups are then weighed once or twice a week until the end of the trial.
(§6) The tumors are measured 1 to 5 times a week, depending on the tumor doubling time, until the tumor reaches approximately 1,000 mm^3, or until the animal dies (if this occurs before the tumor reaches 1,000 mm^3). The animals are necropsied immediately after euthanasia or death.
The selected tumor model was a human rhabdomyosarcoma RH-30, xenografted in SCID mice [Douglass E C, et al. Cytogenet Cell Genet. 1987; 45(3-4):14855.].
(§7) Treatment solutions were prepared first by mixing 1 volume of ethanolic stock solution and 1 volume of polysorbate 80, then by adding 18 volumes of glucose 5% in water.

human osteosarcoma DM77 = conditions: day 21
Procedure: In the reported examples supporting this invention, vials of the clinical formulation of cabazitaxel and docetaxel were used. […] The resultant solution contains 10 mg/mL of cabazitaxel. Stock solution of cabazitaxel was then diluted in 0.9% sodium chloride.
as §1, §2, §4
Efficacy could also be determined at study completion, using tumor growth delay (T-C) in days, which is calculated using the median time to endpoint (MTTE) value for each treatment (T) group versus control (C). A Log Rank multiple comparison test with Bonferroni-Holm adjustment for multiplicity was applied on individual TTE to compare the treated groups to the control group.
The efficacy of cabazitaxel in comparison with docetaxel on pediatric patient-derived tumor xenografts was determined experimentally in the following manner: […]
Beginning Day 0, animals were observed daily and weighed twice weekly using a digital scale; data including individual and mean gram weights (Mean We±SD), mean percent weight change versus Day 0 were recorded for each group. Animal deaths were recorded daily and designated as drug-related (D), technical (T), tumor related (B), or unknown (U) based on weight loss and gross observation; single agent or combination groups reporting a mean >20% for a period of 7 days and/or >10% mortality were considered above the maximum tolerated dose (MTD) for that treatment on the evaluated regimen. […]

[2] = system: human Ewing's sarcoma SK-ES-1; conditions: 19
Procedure: as §1, §2, §3, §4
The efficacy of cabazitaxel in comparison with docetaxel on pediatric solid tumors was determined experimentally in the following manner:
The animals subjected to the experiment are subcutaneously grafted unilaterally with approximately 30 mg of a tumor fragment on day 0. The animals are implanted with a human tumor xenografted in immunocompromized mice. Several days post tumor implantation, mice are randomized according to their body weight to the different groups of treatments and controls. The animals are observed every day. The different animal groups are weighed daily during treatment until the maximum weight loss is reached and subsequent full weight recovery has occurred. The groups are then weighed once or twice a week until the end of the trial.
as §6
The selected tumor model was a human Ewing's sarcoma SK-ES-1, xenografted in SCID mice [Fogh J. New York: Plenum Press, 1975].
Cabazitaxel and docetaxel were weighed for each treatment and dissolved in ethanol. Treatment solutions were prepared first by mixing 1 volume of ethanolic stock solution and 1 volume of polysorbate 80, then by adding 18 volumes of glucose 5% in water.
The Td in days was estimated from the plot of the log linear growth of the control group tumors in exponential growth (100 to 1,000 mm^3 range) and the number of tumor regressions observed after therapy.
The following end points have been used: • Toxicity was declared at dosages inducing ≧20% body weight loss or ≧10% drug death; • Relative tumor growth inhibition was determined on day 22 post tumor implantation when the median tumor size in the control group was 456 mm^3; • Antitumor efficacy was determined by calculating the ΔT/ΔC value in percent, according to the above-mentioned formula; • Tumor regressions (as explained above); • Statistical analysis performed (as explained above).

[3] = system: human Ewing's sarcoma TC-71; conditions: 16
Procedure: as §1, §2, §3, §4, §5, §6
The selected tumor model was a human Ewing's sarcoma TC-71, xenografted in SCID mice [Whang-Peng J, et al. Cancer Genet Cytogenet. 1986 Apr. 1; 21(3):185208].
as §7

Structure (SMILES) | ΔT/ΔC in % (day 27) ([1]; 5.6 mg/kg per injection (total 11.2) IV days 14, 18, listed as docetaxel) | ΔT/ΔC in % (day 27) ([1]; 9.0 mg/kg per injection (total 18) IV days 14, listed as docetaxel) | ΔT/ΔC (human osteosarcoma DM77; 15 mg/kg q4d×3 IV) | ΔT/ΔC (human osteosarcoma DM77; 24.2 mg/kg q4d×3 IV) | ΔT/ΔC in % (day 22) ([2]; 5.6 mg/kg per injection (total 11.2) IV days 15, listed as docetaxel) | ΔT/ΔC in % (day 22) ([2]; 9.0 mg/kg per injection (total 18) IV days 15, listed as docetaxel) | ΔT/ΔC in % (day 22) ([2]; 14.5 mg/kg per injection (total 29) IV days 15, listed as docetaxel) | ΔT/ΔC in % (day 21) ([3]; 9.0 mg/kg per injection (total 18) IV days 12, listed as docetaxel) | ΔT/ΔC in % (day 21) ([3]; 14.5 mg/kg per injection (total 29) IV days 12, listed as docetaxel) | ΔT/ΔC in % (day 27) ([1]; 5.6 mg/kg per injection (total 11.2) IV days 14, 18, listed as cabazitaxel) | ΔT/ΔC in % (day 27) ([1]; 14.5 mg/kg per injection (total 29) IV days 14, 18, listed as cabazitaxel) | ΔT/ΔC in % (day 22) ([2]; 5.6 mg/kg per injection (total 11.2) IV days 15) | ΔT/ΔC in % (day 22) ([2]; 9.0 mg/kg per injection (total 18) IV days 15) | ΔT/ΔC in % (day 22) ([2]; 14.5 mg/kg per injection (total 29) IV days 15) | ΔT/ΔC in % (day 21) ([3]; 5.6 mg/kg per injection (total 11.2) IV days 12, listed as cabazitaxel) | ΔT/ΔC in % (day 21) ([3]; 9.0 mg/kg per injection (total 18) IV days 12, listed as cabazitaxel) | ΔT/ΔC in % (day 21) ([3]; 14.5 mg/kg per injection (total 29) IV days 12, listed as cabazitaxel)
CC(=O)O[C@@]12CO[C@@H]1C[C@H](O)[C@@]1(C)C(=O)[C@H](O)C3=C(C)[C@@H](OC(=O)[C@H](O)[C@@H](NC(=O)OC(C)(C)C)c4ccccc4)C[C@@](O)([C@@H](OC(=O)c4ccccc4)[C@H]21)C3(C)C [Docetaxel, docetaxel] | ≤ 0% | ≤ 0% | lower than 0% | lower than 0% | < 0% | < 0% | < 0% | < 0% | < 0% |  |  |  |  |  |  |  | 
CO[C@H]1C(=O)[C@]2(C)[C@@H](OC)C[C@H]3OC[C@@]3(OC(C)=O)[C@H]2[C@H](OC(=O)c2ccccc2)[C@]2(O)C[C@H](OC(=O)[C@H](O)[C@@H](NC(=O)OC(C)(C)C)c3ccccc3)C(C)=C1C2(C)C [Cabazitaxel, 4α-acetoxy-2α-benzoyloxy-5β,20-epoxy-1β-hydroxy-7β,10β-dimethoxy-9-oxo-11-taxen-13α-yl (2R,3S)-3-tert-butoxycarbonyl-amino-2-hydroxy-3-phenylpropionate] |  |  | lower than 0% | lower than 0% |  |  |  |  |  | ≤ 0% | ≤ 0% | < 0% | < 0% | < 0% | < 0% | < 0% | < 0%
